Numbering of substitutions follows the chain as printed. The exact form of at least one protein or probe is not confirmed. At least one verdict was read from the data and is not stated in words by the source. Tags and fusion partners may be left off the protein sequences shown.
Experiments:
Experiment in all cases: EMSA
Details in all cases: similar to WT, Kd in Fig 8K; EMSA: 25 mM HEPES pH 7.5, 0.5 nM 32P-HJ, 37 C 15 min, 8% PAGE in TBE (25 mM Tris base pH 8.0, 25 mM boric acid, 0.5 mM EDTA) at …; recombinant protein; residues 1-605; protein details: His6 (pET28a); label: 5'-32P on HJ02; folded or branched DNA
[1] = biological target: T1, Hop1 N67Q (Saccharomyces cerevisiae) (UniProt P20050)
T1 sequence (looked up): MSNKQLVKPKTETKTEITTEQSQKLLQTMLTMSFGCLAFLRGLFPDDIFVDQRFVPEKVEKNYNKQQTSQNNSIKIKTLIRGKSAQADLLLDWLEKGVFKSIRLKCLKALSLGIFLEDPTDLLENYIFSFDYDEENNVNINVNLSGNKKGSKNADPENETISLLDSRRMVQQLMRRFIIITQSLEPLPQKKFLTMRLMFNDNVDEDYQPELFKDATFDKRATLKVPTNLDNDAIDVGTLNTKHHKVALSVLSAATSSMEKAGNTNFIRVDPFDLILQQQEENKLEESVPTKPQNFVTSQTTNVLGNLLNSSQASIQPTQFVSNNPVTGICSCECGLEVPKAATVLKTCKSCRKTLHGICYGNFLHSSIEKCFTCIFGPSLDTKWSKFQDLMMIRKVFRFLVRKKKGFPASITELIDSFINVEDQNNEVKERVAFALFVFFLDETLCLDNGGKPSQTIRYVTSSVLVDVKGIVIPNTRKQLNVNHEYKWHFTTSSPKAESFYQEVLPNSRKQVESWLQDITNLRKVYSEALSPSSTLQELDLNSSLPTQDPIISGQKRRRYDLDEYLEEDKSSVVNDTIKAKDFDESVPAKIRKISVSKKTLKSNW

[2] = biological target: T2, Hop1 R558A (Saccharomyces cerevisiae) (UniProt P20050)
T2 sequence (looked up): T1 sequence (looked up) with Q67N, R558A

[3] = biological target: T3, Hop1 R352A (Saccharomyces cerevisiae) (UniProt P20050)
T3 sequence (looked up): T1 sequence (looked up) with Q67N, R352A

[4] = biological target: T4, Hop1 N139Q (Saccharomyces cerevisiae) (UniProt P20050)
T4 sequence (looked up): T1 sequence (looked up) with Q67N, N139Q

[5] = biological target: T5, Hop1 K65A (Saccharomyces cerevisiae) (UniProt P20050)
T5 sequence (looked up): T1 sequence (looked up) with K65A, Q67N

Measured: binding result

GACGCTGCCGAATTCTACCAGTGCCTTGCTAGGACATCTTTGCCCACCTGCCGGTTCACCC / TGGGTGAACCTGCAGGTGGGCAAAGATGTCCTAGCAATGTAATCGTCAAAGCTTTATGCCGTT / CAACGGCATAAAGCTTGACGATTACATTGCTAGGACATGCTGTCTAGAGGATCCGACTATCGA / ATCGATAGTCGGATCCTCTAGACAGCATGTCCTAGCAAGGCACTGGTAGAATTCGGCAGCGT [Holliday junction (HJ), 32P]
binds: all assays above

— paper PMC11797056, “The ATPase activity of yeast chromosome axis protein Hop1 affects the frequency of meiotic crossovers” (Nucleic Acids Research, 2024)
